Assay results as given in patent publication US20170183415A1.
These are yes or no findings as the source states them, for the method shown. Some binding calls cover weakened binding; strength is not graded here.

T1: immobilized CD123 (UniProt P26951)
T1 sequence (looked up): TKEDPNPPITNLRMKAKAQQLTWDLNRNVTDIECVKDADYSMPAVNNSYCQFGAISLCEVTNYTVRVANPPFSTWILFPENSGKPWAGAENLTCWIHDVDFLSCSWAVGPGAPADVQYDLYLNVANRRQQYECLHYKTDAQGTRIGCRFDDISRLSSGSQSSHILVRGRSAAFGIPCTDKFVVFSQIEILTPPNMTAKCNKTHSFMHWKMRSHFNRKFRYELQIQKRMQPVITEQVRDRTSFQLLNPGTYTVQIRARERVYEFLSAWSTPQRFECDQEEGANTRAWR

B1: CAR5 Soluble scFv (humanized anti-CD123 scFv variant) (scFv)
scFv: QIQLVQSGSELKKPGASVKVSCKASGYIFTNYGMNWVRQAPGQGLEWMGWINTYTGESTYSADFKGRFVFSLDTSVSTAYLQINALKAEDTAVYYCARSGGYDPMDYWGQGTTVTVSSGGGGSGGGGSGGGGSGGGGSDIVLTQSPDSLAVSLGERATINCRASESVDNYGNTFMHWYQQKPGQPPKLLIYRASNLESGVPDRFSGSGSRTDFTLTISSLQAEDVAVYYCQQSNEDPPTFGQGTKLEIKGSHHHHHHHHH
B2: CAR8 Soluble scFv (humanized anti-CD123 scFv variant) (scFv)
scFv: QIQLVQSGAEVKKPGASVKVSCKASGYIFTNYGMNWVRQAPGQRLEWMGWINTYTGESTYSADFKGRVTITLDTSASTAYMELSSLRSEDTAVYYCARSGGYDPMDYWGQGTTVTVSSGGGGSGGGGSGGGGSGGGGSEIVLTQSPATLSLSPGERATLSCRASESVDNYGNTFMHWYQQKPGQAPRLLIYRASNLESGIPARFSGSGSRTDFTLTISSLEPEDVAVYYCQQSNEDPPTFGQGTKLEIKGSHHHHHHHHH
B3: CAR7 Soluble scFv (humanized anti-CD123 scFv variant) (scFv)
scFv: QIQLVQSGAEVKKPGASVKVSCKASGYIFTNYGMNWVRQAPGQRLEWMGWINTYTGESTYSADFKGRVTITLDTSASTAYMELSSLRSEDTAVYYCARSGGYDPMDYWGQGTTVTVSSGGGGSGGGGSGGGGSGGGGSDIVLTQSPDSLAVSLGERATINCRASESVDNYGNTFMHWYQQKPGQPPKLLIYRASNLESGVPDRFSGSGSRTDFTLTISSLQAEDVAVYYCQQSNEDPPTFGQGTKLEIKGSHHHHHHHHH
B4: CAR4 Soluble scFv (humanized anti-CD123 scFv variant) (scFv)
scFv: EIVLTQSPATLSLSPGERATLSCRASESVDNYGNTFMHWYQQKPGQAPRLLIYRASNLESGIPARFSGSGSRTDFTLTISSLEPEDVAVYYCQQSNEDPPTFGQGTKLEIKGGGGSGGGGSGGGGSGGGGSQIQLVQSGAEVKKPGASVKVSCKASGYIFTNYGMNWVRQAPGQRLEWMGWINTYTGESTYSADFKGRVTITLDTSASTAYMELSSLRSEDTAVYYCARSGGYDPMDYWGQGTTVTVSSGSHHHHHHHHH
B5: CAR1 Soluble scFv (humanized anti-CD123 scFv variant) (scFv)
scFv: DIVLTQSPDSLAVSLGERATINCRASESVDNYGNTFMHWYQQKPGQPPKLLIYRASNLESGVPDRFSGSGSRTDFTLTISSLQAEDVAVYYCQQSNEDPPTFGQGTKLEIKGGGGSGGGGSGGGGSGGGGSQIQLVQSGSELKKPGASVKVSCKASGYIFTNYGMNWVRQAPGQGLEWMGWINTYTGESTYSADFKGRFVFSLDTSVSTAYLQINALKAEDTAVYYCARSGGYDPMDYWGQGTTVTVSSGSHHHHHHHHH
B6: CAR2 Soluble scFv (humanized anti-CD123 scFv variant) (scFv)
scFv: DIVLTQSPDSLAVSLGERATINCRASESVDNYGNTFMHWYQQKPGQPPKLLIYRASNLESGVPDRFSGSGSRTDFTLTISSLQAEDVAVYYCQQSNEDPPTFGQGTKLEIKGGGGSGGGGSGGGGSGGGGSQIQLVQSGAEVKKPGASVKVSCKASGYIFTNYGMNWVRQAPGQRLEWMGWINTYTGESTYSADFKGRVTITLDTSASTAYMELSSLRSEDTAVYYCARSGGYDPMDYWGQGTTVTVSSGSHHHHHHHHH
B7: CAR 3 Soluble scFv (humanized anti-CD123 scFv variant) (scFv)
scFv: EIVLTQSPATLSLSPGERATLSCRASESVDNYGNTFMHWYQQKPGQAPRLLIYRASNLESGIPARFSGSGSRTDFTLTISSLEPEDVAVYYCQQSNEDPPTFGQGTKLEIKGGGGSGGGGSGGGGSGGGGSQIQLVQSGSELKKPGASVKVSCKASGYIFTNYGMNWVRQAPGQGLEWMGWINTYTGESTYSADFKGRFVFSLDTSVSTAYLQINALKAEDTAVYYCARSGGYDPMDYWGQGTTVTVSSGSHHHHHHHHH
B8: CAR6 Soluble scFv (humanized anti-CD123 scFv variant) (scFv)
scFv: QIQLVQSGSELKKPGASVKVSCKASGYIFTNYGMNWVRQAPGQGLEWMGWINTYTGESTYSADFKGRFVFSLDTSVSTAYLQINALKAEDTAVYYCARSGGYDPMDYWGQGTTVTVSSGGGGSGGGGSGGGGSGGGGSEIVLTQSPATLSLSPGERATLSCRASESVDNYGNTFMHWYQQKPGQAPRLLIYRASNLESGIPARFSGSGSRTDFTLTISSLEPEDVAVYYCQQSNEDPPTFGQGTKLEIKGSHHHHHHHHH

target: T1, immobilized CD123; test: ELISA, soluble His-tagged scFv on immobilized CD123

binding, binds:
B1, B2, B3, B4, B5, B6, B7, B8
